The series in a line: Colorstrike / color intensity on natural white hair (colorimeter, D65 illumination). The note with it: dye in water adjusted to pH 10.8 with 28% ammonia, mixed with equal volume of 6% hydrogen peroxide solution, rinsed after thirty minutes.

Counter-ions that a name gives are not always drawn.

`CCCCCN1CCN(CCCCC)c2cc(/N=N/c3n(CCCCN)cc[n+]3CCCCN)ccc21.Cl.Cl.[Br-]` [Compound 4, (E)-1,3-bis(4-ammoniobutyl)-2-((1,4-dipentyl-1,2,3,4-tetrahydroquinoxalin-6-yl)diazenyl)-1H-imidazol-3-ium bromide dichloride]: the L is given as 20.55, the a is given as −2.22 and the b was −7.03.

In turn, `Cn1cc[n+](C)c1/N=N/c1cc2c3c(c1)OCCN3CCO2` [Compound 8, (E)-1,3-dimethyl-2-((2,3,4,5-tetrahydro-1,6-dioxa-3a-azaphenalen-8-yl)diazenyl)-1H-imidazol-3-ium methyl sulfate] returned an L of 19.85, an a of 30.32 and a b of −14.59.

Regarding `CCN1CCN(CC)c2cc(/N=N/c3n(CCCCN)cc[n+]3CCCCN)ccc21` [Compound 9], the L is 25.66, the a is given as −3.25 and the b is given as −10.69.

The compound `C=CCN1CCN(CC=C)c2cc(/N=N/c3n(CCCCN)cc[n+]3CCCCN)ccc21` [Compound 7] displayed an L of 18.31, an a of −0.34 and a b of −8.23.

`CCCCCN1CCNc2cc(/N=N/c3n(CCCN)cc[n+]3CCCN)ccc21.Cl.Cl.[Br-]` [Compound 5, (E)-1,3-bis(3-ammoniopropyl)-2-((1-pentyl-1,2,3,4-tetrahydroquinoxalin-6-yl)diazenyl)-1H-imidazol-3-ium bromide dichloride] returned an L of 19.40, an a of 0.36 and a b of −8.79.

Take `CCN1CCN(CC)c2cc(/N=N/c3n(CCC[N+](C)(C)C)cc[n+]3CCC[N+](C)(C)C)ccc21` [Compound 2, (E)-2-((1,4-diethyl-1,2,3,4-tetrahydroquinoxalin-6-yl)diazenyl)-1,3-bis(3-(trimethyl-ammonio)propyl)-1H-imidazol-3-ium tribromide]: the L is on record as 18.31, the a is −0.34 and the b was −8.23.

As for `CN1CCNc2cc(/N=N/c3n(CCCN)cc[n+]3CCCN)ccc21.Cl.Cl.[Br-]` [Compound 3, (E)-1,3-bis(3-ammoniopropyl)-2-((1-methyl-1,2,3,4-tetrahydroquinoxalin-6-yl)diazenyl)-1H-imidazol-3-ium bromide dichloride], the L is recorded as 18.24, the a worked out at 1.06 and the b is −7.83.

As to `CCN1CCN(CC)c2cc(/N=N/c3n(CCC[N+](C)(C)C)cc[n+]3CCC[N+](C)(C)C)ccc21` [Compound 6], the L is 20.67, the a is on record as −1.98 and the b was −7.99.

`CCN1CCN(CC)c2cc(/N=N/c3n(CCCN)cc[n+]3CCCN)ccc21.Cl.Cl.[Br-]` [Compound 1, (E)-1,3-bis(3-ammoniopropyl)-2-((1,4-diethyl-1,2,3,4-tetrahydroquinoxalin-6-yl)diazenyl)-1H-imidazol-3-ium bromide dichloride]: the L was 18.27, the a is on record as −0.98 and the b was −6.59.

The values are drawn from US9982138B2, “Hair color compositions comprising stable violet-blue to blue imidazolium dyes” (Noxell Corporation, priority 2016, dated 2018).
